Earlier results in article PMC7555276, “Using Ex Vivo Porcine Jejunum to Identify Membrane Transporter Substrates: A Screening Tool for Early—Stage Drug Development” (Biomedicines, 2020).

Test system: OCT1
Settings: inhibitor of OCT1; cited from earlier work

For `CN1[C@@H]2CC[C@H]1C[C@@H](OC(=O)C(CO)c1ccccc1)C2` (stereo partly shown) [Atropine], the IC50 is given as 1200 nM.
